Source: US7368286B2, “Method and device for identifying substances capable of modulating adipocyte differentiation” (Genfit, priority 2002, dated 2008)
At least one compound was matched to its structure with a doubt left.

What was measured:
[1] = system: 3T3-L1 cells expressing the REV-ERB ALPHA receptor; experiment: Oil red O staining of 3T3-L1 cells infected with MFG-Neo or MFG-Rev-erb alpha retrovirus and induced to differentiate; assay type: cell-based; settings: 1 μM
[2] = system: REV-ERB ALPHA receptor mRNA in 3T3-L1 pre-adipocytes; experiment: Northern blot of REV-ERB ALPHA receptor mRNA in differentiating 3T3-L1 pre-adipocytes; assay type: cell-based; settings: versus standard differentiation treatment
[3] = system: aP2 and PPAR GAMMA receptor mRNA in 3T3-L1 cells; experiment: Northern blot of adipocyte markers in 3T3-L1 cells infected with MFG-Neo or MFG-REV retrovirus; assay type: cell-based; settings: cells expressing the REV-ERB ALPHA receptor, rosiglitazone mixture or rosiglitazone alone, after four days of differentiation
[4] = system: REV-ERB ALPHA receptor mRNA in epididymal and perirenal adipose tissue; experiment: Northern blot of adipose tissue mRNA from rats treated with rosiglitazone; assay type: in vivo, rat; settings: 10 mg/kg/day by gavage for 14 days, versus control

SMILES: CN(CCOc1ccc(CC2SC(=O)NC2=O)cc1)c1ccccn1 (stereo not shown) [rosiglitazone]
- pre-adipocyte differentiation and lipid accumulation in cells expressing the REV-ERB ALPHA receptor compared with control cells ([1]; differentiation medium with IBMX and insulin): increase
- lipid accumulation (Oil red O) ([1]; cells expressing the REV-ERB ALPHA receptor, treated for 8 days): high lipid accumulation
- onset of REV-ERB ALPHA receptor mRNA induction ([2]; 1 μM with dexamethasone, IBMX, insulin): induced earlier
- REV-ERB ALPHA receptor mRNA levels after 9 days ([2]; 1 μM, fully differentiated 3T3-L1 adipocytes): significantly higher
- PPAR GAMMA receptor mRNA levels [3]: high
- aP2 mRNA levels [3]: high
- levels of REV-ERB ALPHA receptor mRNA in adipose tissues [4]: sharply increased
